Measured values: PMC2654920, “Borrelia recurrentis Employs a Novel Multifunctional Surface Protein with Anti-Complement, Anti-Opsonic and Invasive Potential to Escape Innate Immunity” (PLoS ONE, 2009)

Sequences of proteins named here, by UniProt entry; tags and fusion partners are left off. Residues count along the entry.
UniProt P08603, residues 19-1231: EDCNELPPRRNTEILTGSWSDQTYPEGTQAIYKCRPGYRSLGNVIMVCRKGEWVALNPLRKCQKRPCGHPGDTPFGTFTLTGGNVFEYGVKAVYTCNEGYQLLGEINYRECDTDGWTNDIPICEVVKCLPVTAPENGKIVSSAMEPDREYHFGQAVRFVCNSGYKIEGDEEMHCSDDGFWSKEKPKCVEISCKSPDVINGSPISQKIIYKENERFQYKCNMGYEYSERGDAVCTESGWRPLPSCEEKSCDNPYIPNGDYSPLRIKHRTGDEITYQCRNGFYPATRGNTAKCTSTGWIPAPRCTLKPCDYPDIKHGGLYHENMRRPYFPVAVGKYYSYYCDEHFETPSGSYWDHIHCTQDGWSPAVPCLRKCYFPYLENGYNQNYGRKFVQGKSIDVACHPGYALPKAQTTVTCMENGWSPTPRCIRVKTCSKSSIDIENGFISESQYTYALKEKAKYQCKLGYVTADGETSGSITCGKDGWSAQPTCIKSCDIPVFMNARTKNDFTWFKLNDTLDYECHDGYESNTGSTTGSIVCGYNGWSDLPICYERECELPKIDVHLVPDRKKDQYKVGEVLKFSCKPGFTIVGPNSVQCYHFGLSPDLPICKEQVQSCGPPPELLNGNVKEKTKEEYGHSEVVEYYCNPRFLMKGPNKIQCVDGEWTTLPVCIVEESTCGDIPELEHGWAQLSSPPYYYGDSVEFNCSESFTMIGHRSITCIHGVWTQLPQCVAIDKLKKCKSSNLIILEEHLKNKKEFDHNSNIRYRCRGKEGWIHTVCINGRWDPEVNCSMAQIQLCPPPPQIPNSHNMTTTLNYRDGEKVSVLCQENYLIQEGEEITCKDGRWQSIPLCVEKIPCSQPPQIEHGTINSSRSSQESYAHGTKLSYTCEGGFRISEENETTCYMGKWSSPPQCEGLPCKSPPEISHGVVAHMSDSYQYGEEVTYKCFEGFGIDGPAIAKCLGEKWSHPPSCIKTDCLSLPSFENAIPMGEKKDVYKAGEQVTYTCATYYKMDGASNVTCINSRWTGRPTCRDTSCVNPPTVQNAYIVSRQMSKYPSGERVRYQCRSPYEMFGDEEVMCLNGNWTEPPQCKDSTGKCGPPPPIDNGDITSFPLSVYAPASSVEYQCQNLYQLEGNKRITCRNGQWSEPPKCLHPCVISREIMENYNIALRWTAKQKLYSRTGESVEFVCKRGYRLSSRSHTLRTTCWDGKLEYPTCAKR

Key:
[1] = molecular target: T1, recombinant full-length HcpA (residues 18 to 175) of B. recurrentis A1 (B. recurrentis A1) (UniProt C1L349); test: SPR; Biacore 3000; recombinant HcpA immobilized on the sensor chip, CFH or deletion mutants in the fluid phase; both purified
T1 sequence: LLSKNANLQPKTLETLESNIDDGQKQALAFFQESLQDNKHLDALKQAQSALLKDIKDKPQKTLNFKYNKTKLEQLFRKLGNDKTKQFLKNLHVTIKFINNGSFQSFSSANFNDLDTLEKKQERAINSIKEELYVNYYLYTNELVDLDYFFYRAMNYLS

[2] = molecular target: T1, recombinant full-length HcpA (residues 18 to 175) of B. recurrentis A1 (B. recurrentis A1); test: far-Western, overlay or dot blot; ligand affinity blot: purified recombinant HcpA separated by SDS-PAGE, on nitrocellulose strips, incubated with recombinant CFHL-1, CFH deletion constructs or recombinant CFHR-1; anti-CFH immune serum, mAb JHD7 or JHD8; both purified
[3] = molecular target: T1, recombinant full-length HcpA (residues 18 to 175) of B. recurrentis A1 (B. recurrentis A1); test: ELISA; microtiter plates coated with non-denatured HcpA or deletion mutants (1 µg/ml), incubated with CFH (10 µg/ml) or PLG (20 µg/ml) for 1 h at RT; goat anti-CFH or goat anti-PLG; both purified
[4] = molecular target: T1, recombinant full-length HcpA (residues 18 to 175) of B. recurrentis A1 (B. recurrentis A1); test: ELISA; competition inhibition assay: HcpA (2 µg/ml) coated; constant CFH (3 µg/ml in the methods, 2 µg/ml in the results) with PLG 0.001-100 µg/ml, or constant PLG (10 µg/ml) with CFH 0.001-100 µg/ml; both purified
[5] = molecular target: HcpA expressed in transformed B. burgdorferi B313/pBR (B. recurrentis A1) (UniProt C1L349); test: far-Western, overlay or dot blot; ligand affinity blot: borrelial whole cell lysates (15 µg) separated by Tris/Tricine SDS-PAGE under reducing conditions, on nitrocellulose, incubated with normal human serum; CFH detected with mAb JHD7, CFHR-1 with mAb JHD8

Substance | binding [1] | binding [2] | also measured
CFH deletion construct SCR15-19 (human) (domain or fragment) | no binding | – | –
CFH deletion construct SCR15-20 (human) (domain or fragment) | binds | binds | –
recombinant CFHL-1 (CFH SCR1-7) (human) (domain or fragment) | – | no binding | –
CFH deletion mutant SCR19-20 (human) (domain or fragment) | binds | binds | –
human plasminogen | – | – | binding [3]: binds; binding [4]: binds
CFH deletion construct SCR8-20 (human) (domain or fragment) | binds | binds | –
human complement factor H (from UniProt P08603 19-1231) | – | – | binding [5]: binds

These are yes or no findings as the source states them, for the method shown. A result given as binding can be weak or reduced; the word gives no strength.
